According to article PMC9784932:
These are yes or no findings as the source states them, for the method shown. In cells and extracts the contact can be indirect.

Biological target: T1, VPAC2-R (mouse (endogenous in RGC-5)) (UniProt P41588)
T1 sequence: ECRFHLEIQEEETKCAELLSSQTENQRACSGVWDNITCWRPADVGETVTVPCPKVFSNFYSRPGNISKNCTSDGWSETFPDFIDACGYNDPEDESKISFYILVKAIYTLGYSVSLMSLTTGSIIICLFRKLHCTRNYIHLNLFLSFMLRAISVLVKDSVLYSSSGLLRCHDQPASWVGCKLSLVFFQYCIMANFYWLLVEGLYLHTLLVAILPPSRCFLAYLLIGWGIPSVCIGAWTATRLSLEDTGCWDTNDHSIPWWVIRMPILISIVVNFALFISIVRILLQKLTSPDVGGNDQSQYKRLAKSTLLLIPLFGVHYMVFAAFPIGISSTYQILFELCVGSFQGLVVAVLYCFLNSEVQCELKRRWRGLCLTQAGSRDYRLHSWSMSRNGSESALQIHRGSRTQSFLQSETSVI
Experiment: co-IP; nuclear fraction of RGC-5 cells treated with SPAM1 (1 uM); precipitated with the antibody against the C-terminus of PAC1-R (anti-PAC1-R/ADCYAP1R1 506-525 aa) or, as control, a VPAC2-R antibody, Protein A/G, overnight at 4 C; Western blot

binding: no binding
Substance: nuclear PAC1-R (pituitary adenylate cyclase-activating polypeptide receptor 1) (mouse (endogenous in RGC-5))
